Reference: the supplement of paper PMC10849652
Some of the results follow.

Sequences of proteins named here, by UniProt entry; tags and fusion partners are left off. A change or cut given only in a name is not applied to a line headed by its entry.
UniProt Q5VWQ0: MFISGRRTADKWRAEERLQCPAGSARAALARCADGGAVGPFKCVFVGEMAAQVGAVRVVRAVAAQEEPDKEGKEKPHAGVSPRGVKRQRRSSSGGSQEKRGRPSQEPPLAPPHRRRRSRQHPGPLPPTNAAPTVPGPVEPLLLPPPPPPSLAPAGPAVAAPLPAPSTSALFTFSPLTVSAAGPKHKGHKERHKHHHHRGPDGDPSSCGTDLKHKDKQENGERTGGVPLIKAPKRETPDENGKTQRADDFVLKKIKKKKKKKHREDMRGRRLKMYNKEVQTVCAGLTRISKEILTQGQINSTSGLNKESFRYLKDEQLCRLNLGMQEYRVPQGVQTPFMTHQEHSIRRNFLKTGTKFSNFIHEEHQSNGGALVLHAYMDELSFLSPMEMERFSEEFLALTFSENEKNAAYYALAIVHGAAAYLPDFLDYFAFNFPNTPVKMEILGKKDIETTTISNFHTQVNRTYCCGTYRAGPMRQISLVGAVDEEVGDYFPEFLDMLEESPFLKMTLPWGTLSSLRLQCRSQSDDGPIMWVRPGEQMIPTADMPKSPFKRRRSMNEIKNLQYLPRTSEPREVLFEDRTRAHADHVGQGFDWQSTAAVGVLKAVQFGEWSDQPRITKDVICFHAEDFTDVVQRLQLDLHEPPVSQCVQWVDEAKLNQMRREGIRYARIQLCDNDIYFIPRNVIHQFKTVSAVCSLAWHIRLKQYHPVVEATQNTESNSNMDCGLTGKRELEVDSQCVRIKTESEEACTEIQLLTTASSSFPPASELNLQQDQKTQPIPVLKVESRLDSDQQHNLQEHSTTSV
UniProt Q96S38: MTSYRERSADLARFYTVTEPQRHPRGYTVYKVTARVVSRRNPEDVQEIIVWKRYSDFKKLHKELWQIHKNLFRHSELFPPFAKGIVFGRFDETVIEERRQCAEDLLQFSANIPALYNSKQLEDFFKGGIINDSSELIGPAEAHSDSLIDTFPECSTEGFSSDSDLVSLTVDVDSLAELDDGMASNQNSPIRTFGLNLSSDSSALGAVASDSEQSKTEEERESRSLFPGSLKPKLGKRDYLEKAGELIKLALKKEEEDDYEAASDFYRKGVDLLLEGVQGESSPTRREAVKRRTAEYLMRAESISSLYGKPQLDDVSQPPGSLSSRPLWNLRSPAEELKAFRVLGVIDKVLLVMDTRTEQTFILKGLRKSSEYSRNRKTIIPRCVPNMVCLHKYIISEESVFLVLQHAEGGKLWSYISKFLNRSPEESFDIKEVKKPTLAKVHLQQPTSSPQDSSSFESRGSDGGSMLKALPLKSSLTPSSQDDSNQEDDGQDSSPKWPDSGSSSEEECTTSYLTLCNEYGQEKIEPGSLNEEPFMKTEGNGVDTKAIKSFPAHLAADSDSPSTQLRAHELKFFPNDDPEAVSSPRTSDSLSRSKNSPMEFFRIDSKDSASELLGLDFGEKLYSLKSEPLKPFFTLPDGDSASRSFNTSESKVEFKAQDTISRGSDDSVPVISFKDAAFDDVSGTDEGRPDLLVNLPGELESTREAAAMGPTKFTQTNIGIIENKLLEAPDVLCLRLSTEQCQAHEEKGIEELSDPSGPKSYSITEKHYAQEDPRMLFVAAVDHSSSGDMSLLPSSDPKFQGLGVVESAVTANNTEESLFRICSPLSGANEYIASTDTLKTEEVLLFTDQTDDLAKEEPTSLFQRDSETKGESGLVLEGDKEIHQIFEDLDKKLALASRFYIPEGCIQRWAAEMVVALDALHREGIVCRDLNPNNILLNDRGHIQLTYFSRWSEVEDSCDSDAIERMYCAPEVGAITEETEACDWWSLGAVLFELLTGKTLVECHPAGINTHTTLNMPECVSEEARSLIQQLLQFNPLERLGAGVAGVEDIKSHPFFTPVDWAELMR
UniProt Q6PCB5: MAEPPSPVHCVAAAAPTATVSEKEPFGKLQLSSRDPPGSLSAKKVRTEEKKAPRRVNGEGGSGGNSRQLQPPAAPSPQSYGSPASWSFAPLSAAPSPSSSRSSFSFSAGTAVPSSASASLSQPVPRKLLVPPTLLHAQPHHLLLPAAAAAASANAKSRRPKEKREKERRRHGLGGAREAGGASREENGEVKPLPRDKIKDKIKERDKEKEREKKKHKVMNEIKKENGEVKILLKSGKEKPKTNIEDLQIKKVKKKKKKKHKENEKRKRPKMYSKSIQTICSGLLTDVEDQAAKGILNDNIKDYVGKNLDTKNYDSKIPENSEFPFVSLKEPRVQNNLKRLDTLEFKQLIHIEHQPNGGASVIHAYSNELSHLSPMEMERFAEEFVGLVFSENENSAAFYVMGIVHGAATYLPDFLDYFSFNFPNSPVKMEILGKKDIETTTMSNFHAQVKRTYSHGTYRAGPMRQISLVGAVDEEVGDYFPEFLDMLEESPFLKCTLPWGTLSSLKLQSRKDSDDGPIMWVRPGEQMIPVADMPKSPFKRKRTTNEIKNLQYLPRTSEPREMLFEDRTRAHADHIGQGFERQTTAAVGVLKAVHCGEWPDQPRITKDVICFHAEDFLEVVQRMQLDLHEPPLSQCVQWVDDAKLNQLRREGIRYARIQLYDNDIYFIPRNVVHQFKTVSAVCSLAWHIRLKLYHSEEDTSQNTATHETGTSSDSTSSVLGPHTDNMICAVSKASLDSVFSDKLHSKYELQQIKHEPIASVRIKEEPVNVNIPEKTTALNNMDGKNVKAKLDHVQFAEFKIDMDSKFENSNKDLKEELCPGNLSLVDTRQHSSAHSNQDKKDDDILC
UniProt Q8WWV3: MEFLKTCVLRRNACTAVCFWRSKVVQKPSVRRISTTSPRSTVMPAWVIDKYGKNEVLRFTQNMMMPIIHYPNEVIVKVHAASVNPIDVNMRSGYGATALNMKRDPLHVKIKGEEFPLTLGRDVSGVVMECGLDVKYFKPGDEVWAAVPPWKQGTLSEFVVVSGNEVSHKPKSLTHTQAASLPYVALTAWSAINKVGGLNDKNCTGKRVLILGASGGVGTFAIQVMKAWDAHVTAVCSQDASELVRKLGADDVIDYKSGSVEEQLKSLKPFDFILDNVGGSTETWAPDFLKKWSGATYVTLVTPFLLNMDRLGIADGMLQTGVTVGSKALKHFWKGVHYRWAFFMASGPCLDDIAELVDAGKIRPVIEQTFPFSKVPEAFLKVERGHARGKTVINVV
UniProt Q7L523, whole entry, looked up: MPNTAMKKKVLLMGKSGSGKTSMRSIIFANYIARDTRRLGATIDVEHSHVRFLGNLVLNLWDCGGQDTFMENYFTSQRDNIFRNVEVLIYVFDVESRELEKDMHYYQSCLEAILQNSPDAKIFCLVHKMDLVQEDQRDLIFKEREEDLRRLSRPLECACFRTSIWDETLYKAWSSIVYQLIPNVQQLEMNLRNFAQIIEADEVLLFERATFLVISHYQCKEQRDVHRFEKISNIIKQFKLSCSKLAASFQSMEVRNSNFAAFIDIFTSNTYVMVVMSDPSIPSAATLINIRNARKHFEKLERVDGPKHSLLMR
UniProt O75818: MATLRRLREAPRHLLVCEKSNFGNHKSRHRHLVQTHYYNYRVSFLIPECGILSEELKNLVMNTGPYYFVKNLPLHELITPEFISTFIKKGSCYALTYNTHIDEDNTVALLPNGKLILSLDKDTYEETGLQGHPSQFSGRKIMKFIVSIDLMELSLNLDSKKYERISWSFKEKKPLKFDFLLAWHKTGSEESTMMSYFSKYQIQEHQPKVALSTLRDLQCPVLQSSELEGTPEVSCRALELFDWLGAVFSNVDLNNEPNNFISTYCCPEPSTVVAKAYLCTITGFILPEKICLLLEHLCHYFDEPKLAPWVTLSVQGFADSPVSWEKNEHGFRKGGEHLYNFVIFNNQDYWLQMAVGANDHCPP
UniProt Q7L4I2: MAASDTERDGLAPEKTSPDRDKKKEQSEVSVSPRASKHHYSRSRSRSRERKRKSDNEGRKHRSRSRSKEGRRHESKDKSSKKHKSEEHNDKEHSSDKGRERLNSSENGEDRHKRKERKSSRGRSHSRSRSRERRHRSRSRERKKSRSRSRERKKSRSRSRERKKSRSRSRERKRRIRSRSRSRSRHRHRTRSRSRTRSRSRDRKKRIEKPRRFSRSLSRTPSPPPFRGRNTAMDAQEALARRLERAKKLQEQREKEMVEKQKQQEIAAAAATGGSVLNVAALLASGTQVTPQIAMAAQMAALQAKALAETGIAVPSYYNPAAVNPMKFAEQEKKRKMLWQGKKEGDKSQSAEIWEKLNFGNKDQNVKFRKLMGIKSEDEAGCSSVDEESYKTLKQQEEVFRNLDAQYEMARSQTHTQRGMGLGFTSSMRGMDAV
UniProt Q9BUL9: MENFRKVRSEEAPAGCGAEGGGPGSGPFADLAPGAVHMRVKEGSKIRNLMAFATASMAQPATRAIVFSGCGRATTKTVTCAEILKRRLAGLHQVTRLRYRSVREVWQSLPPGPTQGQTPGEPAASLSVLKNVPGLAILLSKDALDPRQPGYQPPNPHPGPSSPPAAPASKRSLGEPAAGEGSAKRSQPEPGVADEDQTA

What was measured:
Test in all cases: log2 fold change, soluble protein after heating vs DMSO (PISA); higher = thermal stabilisation; K562 lysate, 10 uM; active = over 0.2 and 3.5 SD of the protein, either way, in both replicates (recomputed)
lapatinib = compound: CS(=O)(=O)CCNCc1ccc(-c2ccc3ncnc(Nc4ccc(OCc5cccc(F)c5)c(Cl)c4)c3c2)o1 [lapatinib]
Procedure, shortened: (§1)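 A 30 min treatment with 10 μM compound was applied to crude K562 extract at 1 mg/mL protein in PBS pH 7.4 with 1 mM MgCl2. Heating for 3 min spanned 48°C-58°C, after which aliquots were pooled, adjusted to 0.5% NP-40 at 4°C and spun at 21,000xg for 90 min. TMTpro 16plex LC-MS/MS of the supernatant, with channel sums equalised, gave values recorded as log-two fold change in thermal stability against solvent controls, from duplicates.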

pictilisib = compound: CS(=O)(=O)N1CCN(Cc2cc3nc(-c4cccc5[nH]ncc45)nc(N4CCOCC4)c3s2)CC1 [pictilisib]
Procedure, shortened: as §1

crizotinib = compound: C[C@@H](Oc1cc(-c2cnn(C3CCNCC3)c2)cnc1N)c1c(Cl)ccc(F)c1Cl [crizotinib]
Procedure, shortened: as §1

[1] = compound: C[C@H](C1=CC=C(C=C1)C(=O)NC2=C3C=CNC3=NC=C2)N
Procedure, shortened: as §1

duvelisib = compound: C[C@H](Nc1ncnc2nc[nH]c12)c1cc2cccc(Cl)c2c(=O)n1-c1ccccc1 [duvelisib]
Procedure, shortened: as §1

gandotinib = compound: Cc1cc(Nc2cc(CN3CCOCC3)c3nc(C)c(Cc4ccc(Cl)cc4F)n3n2)n[nH]1 [gandotinib]
Procedure, shortened: as §1

tozasertib = compound: Cc1cc(Nc2cc(N3CCN(C)CC3)nc(Sc3ccc(NC(=O)C4CC4)cc3)n2)n[nH]1 [tozasertib]
Procedure, shortened: as §1

doramapimod = compound: Cc1ccc(-n2nc(C(C)(C)C)cc2NC(=O)Nc2ccc(OCCN3CCOCC3)c3ccccc23)cc1 [doramapimod]
Procedure, shortened: as §1

bafetinib = compound: Cc1ccc(NC(=O)c2ccc(CN3CC[C@H](N(C)C)C3)c(C(F)(F)F)c2)cc1Nc1nccc(-c2cncnc2)n1 [bafetinib]
Procedure, shortened: as §1

[2] = compound: Cc1cccc(CC(=O)N2CCc3c2ccc(-c2cn(C)c4ncnc(N)c24)c3F)n1
Procedure, shortened: as §1

nilotinib = compound: Cc1cn(-c2cc(NC(=O)c3ccc(C)c(Nc4nccc(-c5cccnc5)n4)c3)cc(C(F)(F)F)c2)cn1 [nilotinib]
Procedure, shortened: as §1

[3] = compound: Cc1nc(Nc2n[nH]c3c2CN(C(=O)N[C@H](CN(C)C)c2ccccc2)C3(C)C)c2sccc2n1
Procedure, shortened: as §1

dasatinib = compound: Cc1nc(Nc2ncc(C(=O)Nc3c(C)cccc3Cl)s2)cc(N2CCN(CCO)CC2)n1 [dasatinib]
Procedure, shortened: as §1

[4] = compound: Cc1ncc(-c2ccnc(Nc3ccc(S(C)(=O)=O)cc3)n2)n1C(C)C
Procedure, shortened: as §1

[5] = compound: Cn1cc(-c2ccc3c(c2)CCN3C(=O)Cc2cccc(C(F)(F)F)c2)c2c(N)ncnc21
Procedure, shortened: as §1

quisinostat = compound: Cn1cc(CNCC2CCN(c3ncc(C(=O)NO)cn3)CC2)c2ccccc21 [quisinostat]
Procedure, shortened: as §1

tipifarnib = compound: Cn1cncc1[C@@](N)(c1ccc(Cl)cc1)c1ccc2c(c1)c(-c1cccc(Cl)c1)cc(=O)n2C [tipifarnib]
Procedure, shortened: as §1

[6] = compound: NC(=O)Nc1cc(-c2cccc(F)c2)sc1C(=O)N[C@H]1CCCNC1
Procedure, shortened: as §1

[7] = compound: NC(=O)c1cnc(N[C@@H]2CCCC[C@@H]2N)nc1Nc1cccc(-n2nccn2)c1
Procedure, shortened: as §1

[8] = compound: NC1(c2ccc(-c3nc4ccn5c(=O)[nH]nc5c4cc3-c3ccccc3)cc2)CCC1
Procedure, shortened: as §1

Measured: log2 fold change

RPSA (UniProt P08865)
inactive: lapatinib -0.007 | pictilisib 0.038 | crizotinib -0.046 | [1] -0.03 | duvelisib 0.002 | gandotinib -0.009 | tozasertib 0.017 | doramapimod -0.006 | bafetinib -0.017 | [2] 0.035 | nilotinib -0.022 | [3] -0.016 | dasatinib 0.014 | [4] -0.012 | [5] 0.033 | quisinostat -0.019 | tipifarnib 0 | [6] -0.002 | [7] 0.011 | [8] -0.011

RSBN1 (UniProt Q5VWQ0)
inactive: lapatinib -0.034 | pictilisib -0.01 | crizotinib -0.05 | [1] -0.01 | duvelisib -0.002 | gandotinib 0.036 | tozasertib -0.067 | doramapimod 0.021 | bafetinib 0.02 | [2] 0.046 | nilotinib 0.018 | [3] 0.003 | dasatinib 0.054 | [4] -0.033 | [5] -0.046 | quisinostat -0.117 | tipifarnib 0.041 | [6] 0.024 | [7] 0.003 | [8] -0.03

RPS6KC1 (UniProt Q96S38)
inactive: lapatinib -0.05 | pictilisib -0.014 | crizotinib 0.019 | [1] -0.03 | duvelisib 0.01 | gandotinib -0.022 | tozasertib 0.002 | doramapimod 0.056 | bafetinib -0.065 | [2] 0.038 | nilotinib -0.012 | [3] 0.006 | dasatinib -0.01 | [4] -0.019 | [5] 0.056 | quisinostat -0.037 | tipifarnib -0.032 | [6] -0.026 | [7] 0.029 | [8] -0.061

RSBN1L (UniProt Q6PCB5)
inactive: lapatinib 0.002 | pictilisib 0.005 | crizotinib -0.078 | [1] -0.032 | duvelisib 0.006 | gandotinib 0.019 | tozasertib -0.024 | doramapimod 0.001 | bafetinib -0.009 | [2] 0.024 | nilotinib -0.002 | [3] 0.03 | dasatinib 0.021 | [4] 0.023 | [5] -0.003 | quisinostat -0.035 | tipifarnib 0 | [6] -0.005 | [7] 0.001 | [8] -0.011

Two entries picked at random from the list so far, as already listed:
RSBN1 (UniProt Q5VWQ0)
inactive: lapatinib -0.034 | pictilisib -0.01 | crizotinib -0.05 | [1] -0.01 | duvelisib -0.002 | gandotinib 0.036 | tozasertib -0.067 | doramapimod 0.021 | bafetinib 0.02 | [2] 0.046 | nilotinib 0.018 | [3] 0.003 | dasatinib 0.054 | [4] -0.033 | [5] -0.046 | quisinostat -0.117 | tipifarnib 0.041 | [6] 0.024 | [7] 0.003 | [8] -0.03

RSBN1L (UniProt Q6PCB5)
inactive: lapatinib 0.002 | pictilisib 0.005 | crizotinib -0.078 | [1] -0.032 | duvelisib 0.006 | gandotinib 0.019 | tozasertib -0.024 | doramapimod 0.001 | bafetinib -0.009 | [2] 0.024 | nilotinib -0.002 | [3] 0.03 | dasatinib 0.021 | [4] 0.023 | [5] -0.003 | quisinostat -0.035 | tipifarnib 0 | [6] -0.005 | [7] 0.001 | [8] -0.011

(cont.)

RPL7L1 (UniProt Q6DKI1)
inactive: lapatinib -0.036 | pictilisib 0.008 | crizotinib -0.043 | [1] -0.061 | duvelisib -0.011 | gandotinib -0.054 | tozasertib -0.042 | doramapimod 0.005 | bafetinib -0.096 | [2] 0.07 | nilotinib -0.002 | [3] 0.02 | dasatinib -0.018 | [4] 0.036 | [5] 0.003 | quisinostat -0.056 | tipifarnib -0.004 | [6] 0.01 | [7] 0.018 | [8] 0.002

RPS20 isoform 2 (UniProt P60866)
inactive: lapatinib -0.034 | pictilisib -0.141 | crizotinib -0.027 | [1] -0.093 | duvelisib 0.024 | gandotinib 0.031 | tozasertib 0.012 | doramapimod 0 | bafetinib -0.081 | [2] 0.015 | nilotinib -0.012 | [3] -0.031 | dasatinib -0.059 | [4] 0.008 | [5] 0.012 | quisinostat -0.107 | tipifarnib 0.027 | [6] -0.025 | [7] -0.021 | [8] 0.009

RPL4 (UniProt P36578)
inactive: lapatinib -0.01 | pictilisib 0.024 | crizotinib 0.039 | [1] 0.12 | duvelisib 0.02 | gandotinib -0.045 | tozasertib -0.036 | doramapimod -0.031 | bafetinib 0.013 | [2] -0.048 | nilotinib 0.051 | [3] -0.029 | dasatinib 0.049 | [4] -0.015 | [5] -0.014 | quisinostat 0.08 | tipifarnib 0.015 | [6] 0.003 | [7] -0.013 | [8] -0.006

RPS15A (UniProt P62244)
inactive: lapatinib -0.008 | pictilisib -0.004 | crizotinib -0.021 | [1] 0.08 | duvelisib 0.015 | gandotinib -0.026 | tozasertib 0.006 | doramapimod 0.014 | bafetinib 0.005 | [2] -0.003 | nilotinib 0.01 | [3] 0.004 | dasatinib 0.042 | [4] -0.03 | [5] -0.003 | quisinostat 0.011 | tipifarnib 0.006 | [6] 0.003 | [7] 0.016 | [8] 0.021

RTN4IP1 (UniProt Q8WWV3)
inactive: lapatinib -0.02 | pictilisib 0.017 | crizotinib -0.021 | [1] 0.056 | duvelisib 0.072 | gandotinib -0.057 | tozasertib 0.009 | doramapimod -0.016 | bafetinib 0.059 | [2] -0.048 | nilotinib -0.056 | dasatinib -0.046 | [4] -0.259 | [5] 0.028 | quisinostat -0.033 | tipifarnib 0.245 | [6] -0.055 | [7] -0.012 | [8] 0.148
active: [3] -0.34

RRAGA (UniProt Q7L523)
inactive: lapatinib 0 | pictilisib -0.06 | crizotinib -0.084 | [1] 0.075 | duvelisib 0.063 | gandotinib -0.035 | tozasertib -0.033 | doramapimod -0.058 | bafetinib -0.018 | [2] -0.02 | nilotinib -0.144 | [3] 0.032 | dasatinib -0.025 | [4] -0.065 | [5] 0.024 | quisinostat -0.045 | tipifarnib 0.109 | [6] 0.082 | [7] 0.033 | [8] -0.04

RPS26P11 (UniProt Q5JNZ5)
active: [1] -0.484 | [2] 0.24
inactive: lapatinib 0.024 | pictilisib -0.008 | crizotinib -0.085 | duvelisib 0.076 | gandotinib 0.147 | tozasertib -0.055 | doramapimod 0.021 | bafetinib -0.072 | nilotinib 0.026 | [3] 0.027 | dasatinib -0.017 | [4] 0.044 | [5] 0.02 | quisinostat -0.151 | tipifarnib 0.004 | [6] -0.036 | [7] 0 | [8] -0.004

RPP40 (UniProt O75818)
inactive: lapatinib -0.005 | pictilisib -0.034 | crizotinib 0.05 | [1] 0.057 | duvelisib 0.037 | gandotinib -0.055 | tozasertib 0.026 | doramapimod 0.038 | bafetinib -0.011 | [2] -0.087 | nilotinib 0.019 | [3] -0.015 | dasatinib 0.014 | [4] 0.068 | [5] 0.071 | quisinostat 0.022 | tipifarnib 0.035 | [6] -0.014 | [7] 0.01 | [8] 0.04

RPL5 (UniProt P46777)
inactive: lapatinib 0.018 | pictilisib 0.042 | crizotinib 0.002 | [1] 0.033 | duvelisib 0.021 | gandotinib -0.044 | tozasertib -0.002 | doramapimod -0.004 | bafetinib -0.001 | [2] -0.038 | nilotinib 0.022 | [3] 0.007 | dasatinib 0.01 | [4] 0.004 | [5] 0.01 | quisinostat 0.009 | tipifarnib 0.057 | [6] 0.001 | [7] -0.015 | [8] -0.006

RPS9 (UniProt P46781)
inactive: lapatinib -0.012 | pictilisib 0.009 | crizotinib 0.061 | duvelisib 0.006 | gandotinib -0.087 | tozasertib 0.016 | doramapimod -0.023 | bafetinib 0.034 | [2] -0.07 | nilotinib 0.001 | [3] -0.023 | dasatinib 0.067 | [4] -0.039 | [5] 0.023 | quisinostat 0.141 | tipifarnib 0.022 | [6] -0.037 | [7] -0.015 | [8] 0.039
active: [1] 0.244

RSRC2 (UniProt Q7L4I2)
inactive: lapatinib 0.011 | pictilisib 0.022 | crizotinib 0.078 | [1] -0.027 | duvelisib 0.02 | gandotinib 0.116 | tozasertib -0.035 | doramapimod 0.119 | bafetinib 0.015 | [2] 0 | nilotinib 0.013 | [3] 0.006 | dasatinib 0.046 | [4] 0.012 | [5] 0 | quisinostat 0.017 | tipifarnib 0.001 | [6] -0.042 | [7] 0.038 | [8] 0.015

RPP25 (UniProt Q9BUL9)
inactive: lapatinib 0.034 | pictilisib -0.014 | crizotinib -0.014 | [1] 0.015 | duvelisib -0.003 | gandotinib -0.012 | tozasertib -0.056 | doramapimod 0.011 | bafetinib -0.105 | [2] -0.037 | nilotinib 0.054 | [3] 0.142 | dasatinib 0.116 | [4] 0 | [5] 0.009 | quisinostat 0.193 | tipifarnib -0.083 | [6] -0.027 | [7] 0.012 | [8] 0.036
